# According to publication PMC3003240:
# These are yes or no findings as the source states them, for the method shown. Binding seen in cells or lysates may run through a third protein. Some entries that bind do so weakly or less than the wild type.
# B1: Dishevelled-2 (protein, UniProt Q60838 1-736)
# chain: MAGSSAGGGGVGETKVIYHLDEEETPYLVKIPVPAERITLGDFKSVLQRPAGAKYFFKSMDQDFGVVKEEISDDNARLPCFNGRVVSWLVSSDTPQPEVAPPAHESRTELVPPPPPLPPLPPERTSGIGDSRPPSFHPNVSSSHENLEPETETESVVSLRRDRPRRRDSSEHGAGGHRPGGPSRLERHLAGYESSSTLMTSELESTSLGDSDEDDTMSRFSSSTEQSSASRLLKRHRRRRKQRPPRMERTSSFSSVTDSTMSLNIITVTLNMEKYNFLGISIVGQSNERGDGGIYIGSIMKGGAVAADGRIEPGDMLLQVNDMNFENMSNDDAVRVLRDIVHKPGPIVLTVAKCWDPSPQAYFTLPRNEPIQPIDPAAWVSHSAALTGAFPAYPGSSSMSTITSGSSLPDGCEGRGLSVHMDMASVTKAMAAPESGLEVRDRMWLKITIPNAFLGSDVVDWLYHHVEGFPERREARKYASGLLKAGLIRHTVNKITFSEQCYYVFGDLSGGCESYLVNLSLNDNDGSSGASDQDTLAPLPGATPWPLLPTFSYQYPAPHPYSPQPPPYHELSSYTYGGGSASSQHSEGSRSSGSTRSDGGAGRTGRPEERAPESKSGSGSESELSSRGGSLRRGGEPGGTGDGGPPPSRGSTGAPPNLRALPGLHPYGAPSGMALPYNPMMVVMMPPPPPPVSTAVQPPGAPPVRDLGSVPPELTASRQSFHMAMGNPSEFFVDVM
# B2: Dishevelled-3 (protein, UniProt Q61062 1-716)
# chain: MGETKIIYHLDGQETPYLVKLPLPAERVTLADFKGVLQRPSYKFFFKSMDDDFGVVKEEISDDNAKLPCFNGRVVSWLVSAEGSHPEPAPFCADNPSELPPSMERTGGIGDSRPPSFHPHASGGSQENLDNDTETDSLVSAQRERPRRRDGPEHAARLNGTTKGERRREPGGYDSSSTLMSSELETTSFFDSDEDDSTSRFSSSTEQSSASRLMRRHKRRRRKQKVSRIERSSSFSSITDSTMSLNIITVTLNMEKYNFLGISIVGQSNERGDGGIYIGSIMKGGAVAADGRIEPGDMLLQVNEINFENMSNDDAVRVLREIVHKPGPITLTVAKCWDPSPRGCFTLPRSEPIRPIDPAAWVSHTAAMTGTFPAYGMSPSLSTITSTSSSITSSIPDTERLDDFHLSIHSDMAAIVKAMASPESGLEVRDRMWLKITIPNAFIGSDVVDWLYHNVEGFTDRREARKYASNLLKAGFIRHTVNKITFSEQCYYIFGDLCGNMANLSLHDHDGSSGASDQDTLAPLPHPGAAPWPMAFPYQYPPPPHPYNPHPGFPELGYSYGGGSASSQHSEGSRSSGSNRSGSDRRKEKDPKAGDSKSGGSGSESDHTTRSSLRGPRERAPSERSGPAASEHSHRSHHSLTSSLRSHHTHPSYGPPGVPPLYGPPMLMMTPPPAAMGPPGAPPGRDLASVPPELTASRQSFRMAMGNPSEFFVDVM
# Experiments:
# [1] = molecular target: T1, Dishevelled-3 (mouse (endogenous in F9)) (UniProt Q61062); experiment: co-IP; endogenous Dvl2 or Dvl3 immunoprecipitated from whole-cell lysates of untreated or Wnt5a-treated F9 cells with isoform-specific antibodies on protein A/G agarose at 4°C; washed 3 times with 20 mM Tris pH 8.0, 150 mM NaCl, 5 mM EDTA, 1% Triton X-100; IP, total and post-IP fractions immunoblotted for each Dvl isoform
# T1 sequence: B2 chain
# [2] = molecular target: T2, Dishevelled-2 (mouse (endogenous in F9)) (UniProt Q60838); experiment: as above
# T2 sequence: B1 chain
Binder,binding [1],binding [2]
B1,binds,–
B2,–,binds
